According to article doi:10.1101/2022.06.27.497849:
Like-named read-outs stand apart in the source and are kept apart here. These are yes or no findings as the source states them, for the method shown. Binding seen in cells or lysates may run through a third protein. These calls come from enrichment with a bait or labelling near it, and not all partners need be listed. For part of these data: No binding means not detected with the bait.

Legend:
Assay in all cases: affinity purification with mass spectrometry
[1] = target: GFP tagged TbMex67L (Trypanosoma brucei) (UniProt Q38C37)
[2] = target: GFP tagged TbMex67b (Trypanosoma brucei) (UniProt Q386S5)
[3] = target: GFP tagged TbMex67L (Trypanosoma brucei) (UniProt Q38C37); remark: listed apart in the source

Molecule	binding [1]	binding [2]	binding [3]
TBC-domain containing GTPase-activating protein (TbGAP) (from UniProt Q38AJ6)	no binding	binds	–
Nog1 (protein, UniProt Q9U6A9 1-655) MSTIYNFKTVTVVPSYKDFIDIVLSKTQRKTPTVVHKGYHISRIRQFYMRKVKFTQKTINEKLTHILTEFPRMDDIHPFYGDLMHVLYDRDHYKVALGQVGAVRHMVDNVGRDYVRLLKYGDSLYRCKQLKRAALGRMATACKKLTSALVYLEKVRQHMSRLPSIDPNARTLLITGFPNVGKSSFMNKVTRADVEVQPYAFTTKSLFVGHTDFKYASWQVIDTPGILDHSLEERNVIEMQAITALAHLRACILFFMDLSTQCGHSIAQQVSLFKSIGPLFTGKPVIVVFNKSDLCTFDDITAEEQSLVMTAIEECGAKWITTSTLTDAGVGDLKTLACETLLAHRSEQKEGSGRFQAIQNRLYCAVPQKRDNVERPAYVPPSVEEIRQRLASGEPVRERRKTERDYEWENGGPGQYQPNERKTWDLENPEWVDDIIPDIMDGHNIYDNVDPDIHERLMELEAEEDARLQELELEASKKRPQYELHDSTVEAVRFIRDKIKVIKMERAMKNPSLRRTRRQSVAIEKFNKRTGSQVDRSATPGCSSETTNSSAKRGRSLSAAQEAVMRDRSSSHMSTKTTRGISSHSATRDRSLSVNRGEGYRDVNEKLRAVKLSKVVARPRNLQAKKGEGDRAIPNLRPKHLFTGKVKSNGRRDRR	–	–	binds
